Experimental data as given in US7413866B2, “Compositions and methods for detecting and treating diseases and conditions related to chemokine receptors” (ChemoCentryx, Inc., priority 2001, dated 2008).

Target: CXCR4 as expressed on breast tumor cells (MCF-7, MDA MB-231) (human)
Test: DisplaceMax displacement of ^125I SDF-1α on MCF-7 cells

B1: mouse I-TAC (ligand, UniProt Q9JHH5 22-100, looked up)
chain: FLMFKQGRCLCIGPGMKAVKMAEIEKASVIYPSNGCDKVEVIVTMKAHKRQRCLDPRSKQARLIMQAIEKKNFLRRQNM
For B1, the binding was “binds”.

Results are given in words; binding and its absence hold for the method and conditions named. Binding calls can cover weak binding; strength is not graded here.
